The supplement of paper PMC12823440, “Inhibitors supercharge kinase turnover through native proteolytic circuits” (Nature, 2025)
Structures can show the parent of a compound that is named as a salt. Some of the results follow. Hit calls seldom repeat between salt and free forms of one compound.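 Kinases were expressed as nanoluciferase fusions in K562 cells and luminescence was read every 4 h between 2 and 18 h as percent of control, DMSO set to 100% and a positive control to 0%. A time point counts as decreased when the signal drops significantly (2 sigma). The hit call is the authors' own, does not follow from the count of time points alone, and its rule is not shown.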

Protein sequences, listed by entry. Tags and fused reporters are not part of them. Lines headed by an entry give the natural chain unless they say otherwise; changes in a name come on top.
UniProt Q9UM73: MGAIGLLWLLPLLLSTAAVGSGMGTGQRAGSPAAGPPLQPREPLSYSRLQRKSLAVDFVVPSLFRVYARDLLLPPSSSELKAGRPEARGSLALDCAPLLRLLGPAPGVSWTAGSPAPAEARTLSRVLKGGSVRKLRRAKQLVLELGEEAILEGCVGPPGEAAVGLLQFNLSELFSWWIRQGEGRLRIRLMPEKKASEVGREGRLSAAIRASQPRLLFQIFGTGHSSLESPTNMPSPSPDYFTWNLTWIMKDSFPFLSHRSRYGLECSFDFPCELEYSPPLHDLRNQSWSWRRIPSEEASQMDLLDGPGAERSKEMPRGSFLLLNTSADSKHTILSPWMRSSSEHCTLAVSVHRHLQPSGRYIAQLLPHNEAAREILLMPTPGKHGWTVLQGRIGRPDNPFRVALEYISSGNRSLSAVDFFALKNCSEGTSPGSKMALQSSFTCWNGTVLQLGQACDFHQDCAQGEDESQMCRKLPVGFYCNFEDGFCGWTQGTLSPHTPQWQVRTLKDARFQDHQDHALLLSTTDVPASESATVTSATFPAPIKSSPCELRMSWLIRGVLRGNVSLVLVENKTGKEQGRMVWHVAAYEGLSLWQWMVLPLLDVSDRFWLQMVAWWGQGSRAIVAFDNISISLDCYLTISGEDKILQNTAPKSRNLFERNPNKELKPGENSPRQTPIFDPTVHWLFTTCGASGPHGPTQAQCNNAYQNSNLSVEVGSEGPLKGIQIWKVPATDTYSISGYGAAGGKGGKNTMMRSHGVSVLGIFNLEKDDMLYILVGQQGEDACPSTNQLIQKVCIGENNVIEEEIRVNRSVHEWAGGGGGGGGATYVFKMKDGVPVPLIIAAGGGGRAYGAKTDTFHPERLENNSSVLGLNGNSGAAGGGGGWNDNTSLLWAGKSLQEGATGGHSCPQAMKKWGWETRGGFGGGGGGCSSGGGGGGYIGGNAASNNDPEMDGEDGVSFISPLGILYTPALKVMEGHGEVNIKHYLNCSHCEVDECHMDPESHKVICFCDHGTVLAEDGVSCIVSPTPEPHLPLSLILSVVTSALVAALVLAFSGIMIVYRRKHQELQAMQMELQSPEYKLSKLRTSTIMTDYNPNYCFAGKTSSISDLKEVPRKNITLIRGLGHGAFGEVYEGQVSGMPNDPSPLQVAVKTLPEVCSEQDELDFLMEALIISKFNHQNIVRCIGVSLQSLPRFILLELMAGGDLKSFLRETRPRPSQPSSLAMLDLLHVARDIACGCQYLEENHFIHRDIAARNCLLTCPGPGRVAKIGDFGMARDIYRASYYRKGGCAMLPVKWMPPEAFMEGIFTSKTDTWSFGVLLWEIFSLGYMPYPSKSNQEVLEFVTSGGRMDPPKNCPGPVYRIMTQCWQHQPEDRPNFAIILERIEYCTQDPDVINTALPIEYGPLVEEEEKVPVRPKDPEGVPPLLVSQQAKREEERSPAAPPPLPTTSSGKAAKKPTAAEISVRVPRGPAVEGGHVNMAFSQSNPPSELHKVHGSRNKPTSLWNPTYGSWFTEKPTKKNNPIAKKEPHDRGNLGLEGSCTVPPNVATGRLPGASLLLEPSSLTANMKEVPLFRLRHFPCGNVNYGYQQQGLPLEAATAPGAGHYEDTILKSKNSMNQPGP
UniProt P10398: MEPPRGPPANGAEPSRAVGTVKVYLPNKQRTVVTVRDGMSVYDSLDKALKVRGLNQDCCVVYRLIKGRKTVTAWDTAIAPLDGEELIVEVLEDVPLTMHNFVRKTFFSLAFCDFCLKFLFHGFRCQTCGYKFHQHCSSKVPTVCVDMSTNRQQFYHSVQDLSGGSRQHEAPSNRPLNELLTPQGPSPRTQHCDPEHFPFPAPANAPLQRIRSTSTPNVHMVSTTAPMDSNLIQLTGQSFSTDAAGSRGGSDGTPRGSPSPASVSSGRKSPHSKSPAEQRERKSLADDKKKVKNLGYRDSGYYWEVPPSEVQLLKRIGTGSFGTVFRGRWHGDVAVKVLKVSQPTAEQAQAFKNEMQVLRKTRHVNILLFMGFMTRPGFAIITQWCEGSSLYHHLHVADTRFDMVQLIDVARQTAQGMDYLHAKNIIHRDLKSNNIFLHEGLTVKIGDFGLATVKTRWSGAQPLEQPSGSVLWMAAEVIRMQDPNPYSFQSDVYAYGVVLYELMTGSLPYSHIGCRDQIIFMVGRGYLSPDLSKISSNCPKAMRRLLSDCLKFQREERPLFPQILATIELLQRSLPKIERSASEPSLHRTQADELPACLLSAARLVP
UniProt O14965: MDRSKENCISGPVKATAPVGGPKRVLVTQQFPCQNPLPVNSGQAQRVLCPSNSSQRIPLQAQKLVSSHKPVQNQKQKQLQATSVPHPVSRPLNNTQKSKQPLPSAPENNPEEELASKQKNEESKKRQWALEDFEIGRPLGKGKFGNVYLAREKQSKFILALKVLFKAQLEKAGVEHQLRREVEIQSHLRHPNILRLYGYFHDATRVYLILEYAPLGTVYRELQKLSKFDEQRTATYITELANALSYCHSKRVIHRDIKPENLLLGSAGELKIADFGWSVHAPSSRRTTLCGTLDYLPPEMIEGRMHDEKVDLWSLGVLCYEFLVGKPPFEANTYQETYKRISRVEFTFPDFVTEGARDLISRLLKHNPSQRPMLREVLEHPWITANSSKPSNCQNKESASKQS
UniProt Q96GD4, whole entry: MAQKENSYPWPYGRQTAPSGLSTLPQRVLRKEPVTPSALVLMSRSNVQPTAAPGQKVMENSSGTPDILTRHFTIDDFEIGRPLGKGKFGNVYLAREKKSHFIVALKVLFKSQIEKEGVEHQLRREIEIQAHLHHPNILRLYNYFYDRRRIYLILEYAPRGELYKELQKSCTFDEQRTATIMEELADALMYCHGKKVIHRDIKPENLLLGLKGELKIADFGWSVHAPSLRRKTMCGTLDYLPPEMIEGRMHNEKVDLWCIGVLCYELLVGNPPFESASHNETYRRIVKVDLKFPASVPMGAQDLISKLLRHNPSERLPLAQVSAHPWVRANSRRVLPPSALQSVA
UniProt Q9UQB9: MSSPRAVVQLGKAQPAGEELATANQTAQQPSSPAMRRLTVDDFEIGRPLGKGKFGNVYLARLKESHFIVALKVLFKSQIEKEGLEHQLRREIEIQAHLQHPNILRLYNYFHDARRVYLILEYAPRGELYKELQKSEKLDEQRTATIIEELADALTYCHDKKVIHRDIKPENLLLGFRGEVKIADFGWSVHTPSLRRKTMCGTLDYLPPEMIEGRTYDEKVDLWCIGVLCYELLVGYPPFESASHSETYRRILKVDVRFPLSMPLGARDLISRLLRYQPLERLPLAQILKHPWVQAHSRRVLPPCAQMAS
UniProt P51451: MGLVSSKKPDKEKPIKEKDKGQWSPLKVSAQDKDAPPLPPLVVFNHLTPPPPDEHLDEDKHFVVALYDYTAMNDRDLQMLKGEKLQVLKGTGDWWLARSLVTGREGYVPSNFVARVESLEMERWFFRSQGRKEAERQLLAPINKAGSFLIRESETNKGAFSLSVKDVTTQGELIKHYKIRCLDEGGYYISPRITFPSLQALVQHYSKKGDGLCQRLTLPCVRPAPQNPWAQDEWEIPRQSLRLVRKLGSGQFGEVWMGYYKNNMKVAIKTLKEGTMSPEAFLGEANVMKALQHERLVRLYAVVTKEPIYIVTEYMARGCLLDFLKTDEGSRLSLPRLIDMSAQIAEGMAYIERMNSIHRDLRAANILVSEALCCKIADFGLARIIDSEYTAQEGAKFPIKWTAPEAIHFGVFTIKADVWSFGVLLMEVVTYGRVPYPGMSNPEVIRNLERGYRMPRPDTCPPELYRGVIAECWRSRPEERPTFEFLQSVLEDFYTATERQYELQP
UniProt P51813: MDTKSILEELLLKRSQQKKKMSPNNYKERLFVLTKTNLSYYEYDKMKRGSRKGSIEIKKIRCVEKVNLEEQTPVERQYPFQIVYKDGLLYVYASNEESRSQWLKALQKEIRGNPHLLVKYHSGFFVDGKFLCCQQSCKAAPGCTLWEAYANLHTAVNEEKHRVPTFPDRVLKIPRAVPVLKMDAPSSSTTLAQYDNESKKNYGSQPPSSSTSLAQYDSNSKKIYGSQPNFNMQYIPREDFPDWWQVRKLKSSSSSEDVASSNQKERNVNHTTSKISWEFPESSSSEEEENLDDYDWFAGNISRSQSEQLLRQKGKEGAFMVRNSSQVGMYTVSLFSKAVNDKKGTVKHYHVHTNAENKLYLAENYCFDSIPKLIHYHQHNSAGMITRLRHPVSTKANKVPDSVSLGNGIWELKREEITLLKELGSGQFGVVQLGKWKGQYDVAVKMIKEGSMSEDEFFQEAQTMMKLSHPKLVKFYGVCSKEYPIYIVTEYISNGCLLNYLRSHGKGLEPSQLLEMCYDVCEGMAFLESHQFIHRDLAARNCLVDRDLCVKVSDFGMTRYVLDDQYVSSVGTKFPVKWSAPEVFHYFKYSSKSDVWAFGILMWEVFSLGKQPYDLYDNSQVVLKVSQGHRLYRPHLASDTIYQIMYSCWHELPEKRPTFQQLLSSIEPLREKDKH
UniProt P15056, whole entry, looked up: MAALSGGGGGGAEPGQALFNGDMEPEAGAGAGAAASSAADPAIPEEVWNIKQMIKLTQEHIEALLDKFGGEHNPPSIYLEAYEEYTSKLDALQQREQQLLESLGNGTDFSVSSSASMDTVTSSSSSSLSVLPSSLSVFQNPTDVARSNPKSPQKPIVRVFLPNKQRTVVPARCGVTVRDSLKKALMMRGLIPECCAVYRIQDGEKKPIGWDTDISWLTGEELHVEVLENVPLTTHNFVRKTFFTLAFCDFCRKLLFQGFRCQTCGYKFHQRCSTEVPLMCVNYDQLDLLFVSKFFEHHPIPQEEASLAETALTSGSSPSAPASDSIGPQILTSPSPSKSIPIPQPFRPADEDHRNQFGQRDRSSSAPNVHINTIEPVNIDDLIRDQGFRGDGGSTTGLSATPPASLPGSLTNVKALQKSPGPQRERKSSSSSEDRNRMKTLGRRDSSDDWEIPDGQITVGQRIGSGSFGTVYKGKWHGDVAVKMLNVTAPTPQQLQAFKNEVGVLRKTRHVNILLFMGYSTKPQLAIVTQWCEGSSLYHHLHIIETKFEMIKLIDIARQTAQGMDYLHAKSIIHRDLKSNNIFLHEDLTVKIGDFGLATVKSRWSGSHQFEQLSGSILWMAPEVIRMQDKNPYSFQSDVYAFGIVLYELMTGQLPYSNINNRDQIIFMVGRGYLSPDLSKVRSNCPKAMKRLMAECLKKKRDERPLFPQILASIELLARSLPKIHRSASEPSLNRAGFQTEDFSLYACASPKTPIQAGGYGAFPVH
UniProt Q06187: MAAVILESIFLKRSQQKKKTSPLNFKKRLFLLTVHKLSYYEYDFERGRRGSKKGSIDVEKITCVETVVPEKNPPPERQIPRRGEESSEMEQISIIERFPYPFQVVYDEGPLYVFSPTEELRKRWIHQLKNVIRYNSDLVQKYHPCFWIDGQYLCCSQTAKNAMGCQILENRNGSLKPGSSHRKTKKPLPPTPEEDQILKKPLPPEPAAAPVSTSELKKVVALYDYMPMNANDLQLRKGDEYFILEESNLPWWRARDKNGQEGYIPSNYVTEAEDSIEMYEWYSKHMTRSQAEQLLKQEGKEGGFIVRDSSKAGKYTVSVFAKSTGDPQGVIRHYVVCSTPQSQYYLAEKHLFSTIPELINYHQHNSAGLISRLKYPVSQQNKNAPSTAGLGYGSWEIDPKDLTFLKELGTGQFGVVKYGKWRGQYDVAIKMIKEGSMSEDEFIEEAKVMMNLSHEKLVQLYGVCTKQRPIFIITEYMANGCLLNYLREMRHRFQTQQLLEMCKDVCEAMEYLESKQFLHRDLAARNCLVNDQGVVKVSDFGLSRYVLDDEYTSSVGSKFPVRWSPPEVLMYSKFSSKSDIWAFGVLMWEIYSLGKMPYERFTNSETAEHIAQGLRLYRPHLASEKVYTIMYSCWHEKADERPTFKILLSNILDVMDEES

Legend:
Assay in all cases: number of time points (of 5) at which kinase-Nluc abundance scored as decreased, DMSO-normalised (count); higher = more persistent destabilization
Details in all cases: K562; 2-18 h
[1] = biological target: ALK (UniProt Q9UM73)
[2] = biological target: ARAF (UniProt P10398)
[3] = biological target: AURKA (UniProt O14965)
[4] = biological target: AURKB (UniProt Q96GD4)
[5] = biological target: AURKC (UniProt Q9UQB9)
[6] = biological target: BLK (UniProt P51451)
[7] = biological target: BMX (UniProt P51813)
[8] = biological target: BRAF (UniProt P15056)
[9] = tested on: BRAF_V600E
[10] = biological target: BTK (UniProt Q06187)

| Compound | number of time points [1] | number of time points [2] | number of time points [3] | number of time points [4] | number of time points [5] | number of time points [6] | number of time points [7] | number of time points [8] | number of time points [9] | number of time points [10] |
| --- | --- | --- | --- | --- | --- | --- | --- | --- | --- | --- |
| CCN1/C(=C/C(C)=O)Sc2ccc(OC)cc21 (10 µM) | 0 | 0 | 0 | 0 | 0 | 0 | 3 | 2 | 4 | 0 |
| CC(=O)Nc1nc2ccc(-c3cnc(C)c(NC(=O)OC4CCCCC4)c3)cc2s1 (10 µM) | 0 | 0 | 0 | 0 | 0 | 0 | 0 | 0 | 0 | 0 |
| O=C(O)c1ccc(-c2c[nH]c3ncc(-c4ccccc4)cc23)cc1C1CCCC1 (2.5 µM) | 0 | 0 | 0 | 0 | 0 | 0 | 0 | 0 | 0 | 0 |
| CC(C)(C)c1cc(C(c2cc3c(cc2O)OCO3)N2CCOCC2)cc(C(C)(C)C)c1O (stereo not given) (2.5 µM) | 0 | 0 | 0 | 0 | 0 | 0 | 0 | 0 | 0 | 0 |
| COc1cc(C(C)=O)cc(OC)c1O [Acetosyringone] (10 µM) | 0 | 0 | 0 | 0 | 0 | 0 | 0 | 0 | 0 | 0 |
| COc1ccc(CCNc2ncc3c(=O)n(-c4cccc(F)c4)c(=O)[nH]c3n2)cc1OC (2 µM) | 0 | 0 | 0 | 0 | 0 | 0 | 0 | 0 | 0 | 0 |
| CCOc1nc(Nc2ccc(C(=O)N3CCOCC3)cc2OC)nc2[nH]ccc12 [LRRK2 inhibitor 1] (2.5 µM) | 0 | 0 | 0 | 0 | 0 | 0 | 0 | 0 | 0 | 0 |
| CCc1cccc(CC)c1NC(=O)c1nn(C)c2c1CCc1cnc(Nc3ccc(C(=O)NC4CCN(C)CC4)cc3OC(F)(F)F)nc1-2 (2 µM) | 0 | 0 | 0 | 0 | 0 | 0 | 0 | 0 | 0 | 0 |
| CCCNC(=O)c1cn2ncnc(Nc3cc(C(=O)NC4CC4)ccc3C)c2c1C (10 µM) | 0 | 0 | 0 | 0 | 0 | 0 | 0 | 0 | 0 | 0 |
| C=CC(=O)N1CCC(Oc2cc3c(Nc4ccc(Cl)c(Cl)c4F)ncnc3cc2OC)CC1 [Poziotinib] (2.5 µM) | 0 | 0 | 0 | 0 | 0 | 0 | 0 | 0 | 0 | 0 |
| CN(C)c1ncnc2nc[nH]c12 [6-(Dimethylamino)purine] (10 µM) | 0 | 0 | 0 | 0 | 0 | 0 | 0 | 0 | 0 | 0 |
| COc1ccc2c(c1)c(C1=C(c3c[nH]c4ccccc34)C(=O)NC1=O)cn2CCCN(C)C (10 µM) | 0 | 0 | 0 | 0 | 0 | 0 | 0 | 0 | 0 | 0 |
| C[C@H]1Cc2ccccc2N1C(=O)Cc1nc(N2CCOCC2)cc(=O)[nH]1 (2.5 µM) | 0 | 0 | 0 | 0 | 0 | 0 | 0 | 0 | 0 | 0 |
| CNC(=O)c1ccc(-c2cnc3cnc(-c4ccccc4)cn23)cc1 (10 µM) | 0 | 0 | 0 | 0 | 0 | 0 | 0 | 0 | 0 | 0 |
| COc1cc(-c2cc(-c3cc(OC)c(OC)c(OC)c3)cc(C(F)P(=O)(OCOC(=O)C(C)(C)C)OCOC(=O)C(C)(C)C)c2)cc(OC)c1OC (stereo not given) [Stafia-1-dipivaloyloxymethyl ester] (2.5 µM) | 0 | 0 | 0 | 0 | 0 | 0 | 0 | 0 | 1 | 0 |
| CN(C)C(=O)c1ccc(S(=O)(=O)c2ccc(NC(=O)[C@@](C)(O)C(F)(F)F)c(Cl)c2)cc1 (10 µM) | 0 | 0 | 0 | 0 | 1 | 0 | 0 | 0 | 0 | 0 |
| Cc1cc2cc(Oc3ccnc(Nc4cccc(CS(=O)(=O)NCCN(C)C)c4)n3)ccc2[nH]1 [Sulfatinib] (10 µM) | 0 | 0 | 0 | 0 | 0 | 0 | 1 | 0 | 2 | 0 |
| CCCCCCCC/C=C\CCCCCCCC(=O)NCC(=O)O [N-Oleoyl glycine] (10 µM) | 0 | 0 | 0 | 0 | 0 | 0 | 0 | 0 | 0 | 0 |

No new results follow: 3 of the compounds above.

| Compound | number of time points [1] | number of time points [2] | number of time points [3] | number of time points [4] | number of time points [5] | number of time points [6] | number of time points [7] | number of time points [8] | number of time points [9] | number of time points [10] |
| --- | --- | --- | --- | --- | --- | --- | --- | --- | --- | --- |
| CCc1cccc(CC)c1NC(=O)c1nn(C)c2c1CCc1cnc(Nc3ccc(C(=O)NC4CCN(C)CC4)cc3OC(F)(F)F)nc1-2 (2 µM) | 0 | 0 | 0 | 0 | 0 | 0 | 0 | 0 | 0 | 0 |
| CCCNC(=O)c1cn2ncnc(Nc3cc(C(=O)NC4CC4)ccc3C)c2c1C (10 µM) | 0 | 0 | 0 | 0 | 0 | 0 | 0 | 0 | 0 | 0 |
| C=CC(=O)N1CCC(Oc2cc3c(Nc4ccc(Cl)c(Cl)c4F)ncnc3cc2OC)CC1 [Poziotinib] (2.5 µM) | 0 | 0 | 0 | 0 | 0 | 0 | 0 | 0 | 0 | 0 |

Carrying on.

| Compound | number of time points [1] | number of time points [2] | number of time points [3] | number of time points [4] | number of time points [5] | number of time points [6] | number of time points [7] | number of time points [8] | number of time points [9] | number of time points [10] |
| --- | --- | --- | --- | --- | --- | --- | --- | --- | --- | --- |
| O=C1NC(=O)C(c2cnc3ccccn23)=C1c1cn2c3c(cc(F)cc13)CN(C(=O)N1CCCCC1)CC2 (2.5 µM) | 0 | 0 | 0 | 0 | 0 | 0 | 5 | 0 | 0 | 0 |
| CCCCNC(=N)NC(=N)N [Buformin (hydrochloride)] (2.5 µM) | 0 | 0 | 0 | 0 | 0 | 0 | 0 | 0 | 0 | 0 |
| Cc1ccc(-c2ncn(-c3ccc(Nc4nccc(-c5cccc(N6CCOCC6)c5)n4)cc3)n2)cn1 (10 µM) | 0 | 0 | 0 | 0 | 0 | 0 | 0 | 0 | 0 | 0 |
| C[C@@H]1COCCN1c1cc(C2([S@](C)(=N)=O)CC2)nc(-c2cc[nH]c3nccc2-3)n1 [Ceralasertib] (2.5 µM) | 0 | 0 | 0 | 0 | 0 | 0 | 0 | 0 | 0 | 0 |
| [O-][n+]1cccc(-c2nc3c(Cl)cccc3cc2[C@@H](Nc2ncnc3cccnc23)C(F)(F)F)c1 [Seletalisib] (10 µM) | 0 | 0 | 0 | 0 | 0 | 0 | 0 | 0 | 0 | 0 |
| C[C@@H]1CCc2ncc(F)cc2[C@H]2CCCN2c2ccn3ncc(c3n2)C(=O)N1 [Selitrectinib] (10 µM) | 0 | 0 | 0 | 0 | 0 | 0 | 0 | 1 | 0 | 0 |
| Cc1cc2ncc(-c3ccccc3)nc2cc1C (10 µM) | 0 | 0 | 0 | 0 | 0 | 0 | 0 | 0 | 0 | 0 |
| CC1=C(CC(=O)O)c2cc(F)ccc2/C1=C\c1ccc(C(C)C)cc1 (10 µM) | 0 | 0 | 0 | 0 | 0 | 0 | 0 | 0 | 0 | 0 |
| COc1ncc(Nc2ncc([C@@H](C)N3CCN(S(C)(=O)=O)CC3)cc2-c2nc(C)nc(N)n2)cc1F (10 µM) | 0 | 0 | 0 | 0 | 0 | 1 | 0 | 0 | 0 | 0 |
| CC(C)c1ccc(CC(=O)N2CCN(c3ccc(C#N)nn3)CC2)cc1 (10 µM) | 0 | 0 | 0 | 0 | 0 | 0 | 0 | 0 | 0 | 0 |
| COc1cc(N2CCC(N(C)C)CC2)ccc1Nc1ncc(Cl)c(Nc2ccccc2P(C)(C)=O)n1 (2.5 µM) | 0 | 0 | 0 | 0 | 0 | 1 | 0 | 0 | 0 | 0 |
| CC[C@@H](N)CNc1ccnc(-c2cc(-c3cnn(C)c3)ccc2O)n1 (2.5 µM) | 0 | 0 | 2 | 0 | 0 | 0 | 4 | 0 | 3 | 0 |
| CC[C@H](C)[C@H](NC(=O)[C@H](CCC(=O)O)NC(=O)[C@H](CCCN=C(N)N)NC(=O)[C@H](CCCN=C(N)N)NC(=O)[C@@H](N)CCCCN)C(=O)N[C@@H](CC(C)C)C(=O)N[C@@H](CO)C(=O)N[C@@H](CCCN=C(N)N)C(=O)N[C@@H](CCCN=C(N)N)C(=O)N1CCC[C@H]1C(=O)N[C@@H](CO)C(=O)N[C@@H](Cc1ccc(O)cc1)C(=O)N[C@@H](CCCN=C(N)N)C(=O)O [CREBtide] (10 µM) | 0 | 0 | 0 | 0 | 0 | 0 | 0 | 0 | 0 | 0 |
| C[C@H]1[C@H](OC(=O)CCC(=O)O)O[C@@H]2O[C@@]3(C)CC[C@H]4[C@H](C)CC[C@@H]1[C@@]24OO3 [Artesunate] (2.5 µM) | 0 | 0 | 1 | 1 | 0 | 0 | 0 | 0 | 1 | 0 |
| COc1cc(N2CCC(N3CCN(C)CC3)CC2)ccc1Nc1nc2c(c(Nc3ccccc3S(=O)(=O)NC(C)C)n1)CCN2 [Conteltinib] (10 µM) | 0 | 0 | 0 | 0 | 0 | 0 | 0 | 0 | 0 | 0 |
| CC(C)c1cnn2c(NCc3ccccc3-n3cccn3)nc(OC3CCCNC3)nc12 (stereo not given) (2.5 µM) | 0 | 0 | 1 | 0 | 0 | 2 | 0 | 0 | 4 | 0 |
| CN1CCN(CCCNc2ncc(Cl)c(-c3cc4c(C(=O)NC5CC5)cccc4s3)n2)CC1 (10 µM) | 0 | 0 | 0 | 0 | 0 | 0 | 0 | 0 | 0 | 0 |
